Measurements as given in PubChem BioAssay AID2551 (National Center for Advancing Translational Sciences (NCATS), 2010).
Screen size: about 310,000 compounds; about 17,000 (5.5%) were called active. This list was built around the results that the source calls inconclusive (neither active nor inactive); the mix of calls is not that of the screen. Calls follow the shape of the dose curve; as a rule, active = well fitted inhibition curve with a large enough effect; inconclusive = small, poorly fitted or top-dose-only effect, or effect the other way; inactive = no such curve, though single readings can be large or run the other way. Potencies beside an inconclusive call are fits to weak or partial responses and may not hold up.

Sequences of proteins named here, by UniProt entry; tags and fusion partners are left off. A change or cut given only in a name is not applied to a line headed by its entry.
UniProt P51450: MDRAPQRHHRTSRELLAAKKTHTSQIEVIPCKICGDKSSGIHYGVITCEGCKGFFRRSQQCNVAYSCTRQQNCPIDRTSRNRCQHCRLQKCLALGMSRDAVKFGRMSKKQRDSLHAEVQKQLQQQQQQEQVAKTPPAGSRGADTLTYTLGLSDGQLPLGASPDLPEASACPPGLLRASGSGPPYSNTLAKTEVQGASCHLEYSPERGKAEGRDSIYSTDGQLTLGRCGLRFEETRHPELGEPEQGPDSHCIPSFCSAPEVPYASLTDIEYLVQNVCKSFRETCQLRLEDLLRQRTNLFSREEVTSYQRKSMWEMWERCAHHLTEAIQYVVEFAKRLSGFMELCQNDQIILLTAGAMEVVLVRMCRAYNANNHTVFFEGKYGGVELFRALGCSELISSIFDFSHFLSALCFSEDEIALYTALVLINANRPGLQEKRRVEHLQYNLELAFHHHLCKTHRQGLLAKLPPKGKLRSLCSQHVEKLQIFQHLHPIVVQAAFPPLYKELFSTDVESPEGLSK

biological target: Nuclear receptor ROR-gamma (Mus musculus) (UniProt P51450); assay: qHTS for inhibitors of ROR gamma transcriptional activity; details: Drosophila S2 Gal4-RORgamma UAS-luciferase reporter, 20 h; activity change, negative = inhibition: at 53.6 µM (top of the series); also: nearly all actives have a fitted effect of over 60% in size
Method in brief: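 ROR gamma transcriptional activity was tracked as Gal4-UAS luciferase output in stably transfected Drosophila Schneider cells, with compound added 1 hr before 700 uM copper sulfate induction and a 20 hr ambient-temperature incubation.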
% is scaled to controls: 0 for no effect and ±100 for the full control effect; potency is read from the fitted curve at half-maximal effect.

Potency, inconclusive:
COc1ccc(Br)cc1CSC(=N)N 15.8 µM [activator, single point]
CCOC(=O)N1CCN(C(=S)NC(=O)c2ccnn2C)CC1 35.5 µM [inhibitor, single point]
COc1cc(CC(=O)Nc2cccc(C(F)(F)F)c2)cc(OC)c1OC 17.8 µM [activator, partial curve]
Fc1ccc(NC(=S)Nc2cccc(Cl)c2)cc1 6.31 µM [inhibitor, single point]
CCOc1ccc(-c2nc(CCl)cs2)cc1 8.91 µM [inhibitor, partial curve]
COc1ccc(-c2nc(SCC(=O)Nc3nccs3)c(-c3ccc(Cl)cc3)[nH]2)cc1 31.6 µM [activator, single point]
COc1ccc(/C=N\NC(=O)c2sccc2C)cc1Cn1nc(C)cc1C 25.1 µM [inhibitor, single point]
O=c1c(-c2ccc(F)c(F)c2)nc2cncnc2n1Cc1ccc(F)cc1 15.8 µM [activator, single point]
S=c1[nH]nc(-c2cc(-c3ccsc3)n[nH]2)n1-c1ccccc1 5.01 µM [inhibitor, full curve, poor fit]
Cn1nc(CC(=O)Nc2ccc3c(c2)CCC3)c2ccccc2c1=O 0.316 µM [activator, full curve, poor fit]
O=c1cc(-c2ccccc2)[nH]c2nc3ccccc3n12 6.31 µM [inhibitor, partial curve]
COc1ccc(-c2noc(N3CCC(C(=O)Nc4ccccc4Cl)CC3)n2)cc1 15.8 µM [inhibitor, partial curve]
COc1ccc(OCC(=O)NCCCn2ccnc2)cc1 1.78 µM [activator, partial curve, poor fit]
COc1ccc(CCNCC(O)COc2ccc(OC)cc2C(C)(C)C)cc1 (centres undefined) 22.4 µM [inhibitor, single point]
CCOC(=O)C1=NN(C(=O)c2ccc(C)cc2)C(O)(c2ccc(Cl)cc2)C1 (centres undefined) 20 µM [inhibitor, single point]
O=C(c1ccco1)N1CCN(c2ncnc3c2[nH]c2ccccc23)CC1 6.31 µM [activator, partial curve]
CCN(CC)C(=O)C(=O)Nc1ccc(OCc2ccccc2)cc1 22.4 µM [activator, partial curve, poor fit]
COc1ccc(-c2noc(CCCC(=O)NCC3CCCO3)n2)cc1 (centres undefined) 10 µM [inhibitor, partial curve]
CCOC(=O)C1CCCN(C(=O)c2ccc3c(=O)n(Cc4ccccc4OC)c(=S)[nH]c3c2)C1 (centres undefined) 22.4 µM [inhibitor, single point]
O=C(NCc1ccc(F)cc1)c1cc(S(=O)(=O)N2CCOCC2)ccc1F 12.6 µM [activator, single point]
Nc1nc(SCC(=O)c2cc3ccccc3o2)n[nH]1 35.5 µM [inhibitor, single point]
O=[N+]([O-])c1ccc(C=Nc2cccc3ccccc23)s1 35.5 µM [inhibitor, single point]
CC(C)CC(=O)Nc1cccc(-c2nc3ccccc3o2)c1 20 µM [activator, partial curve, poor fit]
Oc1ccccc1N=Cc1ccc[nH]1 0.501 µM [inhibitor, partial curve, poor fit]
COc1ccc(C2C=C(c3ccc(C)c(C)c3)Nc3ncnn32)c(OC)c1OC (centres undefined) 11.2 µM [inhibitor, single point]
CCCn1c(=O)c(C(=O)Nc2ccccc2C)c(O)c2ccccc21 25.1 µM [inhibitor, single point]

Reprinted from above for reference:
Potency, inconclusive:
Cn1nc(CC(=O)Nc2ccc3c(c2)CCC3)c2ccccc2c1=O 0.316 µM [activator, full curve, poor fit]
O=c1cc(-c2ccccc2)[nH]c2nc3ccccc3n12 6.31 µM [inhibitor, partial curve]
COc1ccc(-c2noc(N3CCC(C(=O)Nc4ccccc4Cl)CC3)n2)cc1 15.8 µM [inhibitor, partial curve]

Following part:

Potency, active:
COc1ccc(OC)c(-n2c(-c3cccc(C)c3)n[nH]c2=S)c1 2.51 µM
COc1ccc(-c2cc3c(nn2)-c2ccccc2C3=O)cc1 2.51 µM
O=C(Nc1nnc(C2CC2)s1)c1cc(Cl)sc1Cl 11.2 µM
O=C(NCC1CCCO1)c1csc(Nc2cccc3ccccc23)n1 (centres undefined) 11.2 µM
Cc1ccsc1/C=N/NC(=O)c1nnn(-c2nonc2N)c1CSc1ccccc1 2.51 µM
CC(=O)Nc1nonc1-c1nc2ccccc2n1CCC(C)C 12.6 µM
Cc1n[nH]c(=S)n1/N=C/c1ccc(OCc2ccc(Cl)cc2Cl)cc1 17.8 µM
O=[N+]([O-])c1ccccc1/C=C/C=N/n1c(-c2ccco2)n[nH]c1=S 8.91 µM
COc1ccc(C(=O)NC(=S)NNC(=O)c2c(-c3ccccc3)noc2C)cc1 6.31 µM
CC(C)c1nnc(NC(=O)c2nc(S(=O)(=O)Cc3ccccc3F)ncc2Cl)s1 7.94 µM

Activity change, negative = inhibition, inactive:
Cc1ccc(NC(=O)N(C2CCCCC2)C(C)c2cccnc2)cc1C (centres undefined) 12.3%
Cc1cc(=O)oc2cc(O)cc(O)c12 -4.05%
COc1cc(CN2CCN(C(=O)c3ccc(-c4ccccc4)cc3)CC2)cc(OC)c1OC 9.4%
CCC(C)NC(=O)c1cc(OC)c(OC)c(OC)c1 (centres undefined) -5.28%
COc1ccccc1Nc1nc(N)nc(CSC(=S)N2CCN(c3ccccc3)CC2)n1 -44.6%
CC(Oc1ccc(Cl)cc1)c1ccnn1S(=O)(=O)c1ccccc1 (centres undefined) 12.4%
Cc1onc(-c2ccccc2Cl)c1C(=O)NCCn1c(C)cc2ccccc21 2.19%
Cc1ccccc1-n1nc2c(c1NC(=O)c1ccc(Br)o1)CSC2 42.3%
O=C(CSc1ncccn1)Nc1cccc2ccccc12 7.75%
O=C(Nc1nnc(SCc2ccc(F)cc2)s1)c1cccnc1Cl -16.7%
COc1ccccc1C(OC(=O)c1cccs1)C(=O)NCc1ccco1 (centres undefined) -30.1% [at 10 µM]
Cc1cc(C(=O)O)cc(Br)c1N -23.3%
Cc1cc(C)n2c(Br)c(CSc3nc4ccccc4s3)nc2n1 37.9%
